Reference: the supplement of paper PMC10849652
The other results are listed elsewhere or left out.

The chains behind the UniProt entries cited, without tags or fusion partners. Where a name states a change or a piece, a line headed by the entry shows the natural chain unless it says otherwise.
UniProt Q2NL82: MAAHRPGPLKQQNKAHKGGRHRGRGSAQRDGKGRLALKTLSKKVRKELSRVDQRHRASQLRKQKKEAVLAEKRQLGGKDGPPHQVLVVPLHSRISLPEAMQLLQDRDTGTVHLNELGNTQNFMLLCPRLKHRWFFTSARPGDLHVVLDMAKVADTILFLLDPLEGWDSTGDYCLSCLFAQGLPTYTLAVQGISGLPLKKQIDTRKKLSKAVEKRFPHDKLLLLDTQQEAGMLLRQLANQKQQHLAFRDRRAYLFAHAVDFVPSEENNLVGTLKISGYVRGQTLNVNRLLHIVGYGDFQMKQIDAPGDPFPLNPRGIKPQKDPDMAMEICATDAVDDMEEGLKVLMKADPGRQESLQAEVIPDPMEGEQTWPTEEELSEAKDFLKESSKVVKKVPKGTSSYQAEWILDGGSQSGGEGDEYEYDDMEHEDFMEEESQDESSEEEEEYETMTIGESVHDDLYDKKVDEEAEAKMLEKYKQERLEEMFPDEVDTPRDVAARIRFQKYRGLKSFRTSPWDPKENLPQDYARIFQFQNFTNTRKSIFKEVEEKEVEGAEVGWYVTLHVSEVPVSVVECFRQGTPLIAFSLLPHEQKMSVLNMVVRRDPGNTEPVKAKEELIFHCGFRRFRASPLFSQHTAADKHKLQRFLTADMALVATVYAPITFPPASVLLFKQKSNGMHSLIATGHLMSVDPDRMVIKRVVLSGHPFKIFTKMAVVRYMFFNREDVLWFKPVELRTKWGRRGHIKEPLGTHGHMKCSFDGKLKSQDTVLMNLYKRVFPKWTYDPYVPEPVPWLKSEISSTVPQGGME
UniProt Q9NY65, whole entry, looked up: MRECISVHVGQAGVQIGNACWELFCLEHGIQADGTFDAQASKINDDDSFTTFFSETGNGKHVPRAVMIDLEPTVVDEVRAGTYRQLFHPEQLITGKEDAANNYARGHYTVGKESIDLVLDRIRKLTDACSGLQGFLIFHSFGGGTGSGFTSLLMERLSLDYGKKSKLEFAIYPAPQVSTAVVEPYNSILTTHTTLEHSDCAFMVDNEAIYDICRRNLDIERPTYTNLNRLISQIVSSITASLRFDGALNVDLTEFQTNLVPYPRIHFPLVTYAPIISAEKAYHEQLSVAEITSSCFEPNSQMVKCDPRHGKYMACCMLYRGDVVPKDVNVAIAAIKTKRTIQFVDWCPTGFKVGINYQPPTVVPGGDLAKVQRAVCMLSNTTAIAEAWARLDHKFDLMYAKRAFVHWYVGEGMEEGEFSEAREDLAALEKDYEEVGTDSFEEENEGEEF
UniProt Q9Y385: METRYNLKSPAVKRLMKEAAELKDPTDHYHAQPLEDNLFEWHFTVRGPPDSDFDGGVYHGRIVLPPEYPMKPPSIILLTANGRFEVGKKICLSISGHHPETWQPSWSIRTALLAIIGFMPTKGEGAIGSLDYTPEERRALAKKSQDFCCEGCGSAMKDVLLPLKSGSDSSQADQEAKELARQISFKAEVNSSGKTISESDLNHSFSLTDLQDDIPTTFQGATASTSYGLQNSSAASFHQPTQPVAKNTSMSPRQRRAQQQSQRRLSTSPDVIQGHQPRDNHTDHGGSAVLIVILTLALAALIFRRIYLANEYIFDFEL
UniProt P26368, whole entry, looked up: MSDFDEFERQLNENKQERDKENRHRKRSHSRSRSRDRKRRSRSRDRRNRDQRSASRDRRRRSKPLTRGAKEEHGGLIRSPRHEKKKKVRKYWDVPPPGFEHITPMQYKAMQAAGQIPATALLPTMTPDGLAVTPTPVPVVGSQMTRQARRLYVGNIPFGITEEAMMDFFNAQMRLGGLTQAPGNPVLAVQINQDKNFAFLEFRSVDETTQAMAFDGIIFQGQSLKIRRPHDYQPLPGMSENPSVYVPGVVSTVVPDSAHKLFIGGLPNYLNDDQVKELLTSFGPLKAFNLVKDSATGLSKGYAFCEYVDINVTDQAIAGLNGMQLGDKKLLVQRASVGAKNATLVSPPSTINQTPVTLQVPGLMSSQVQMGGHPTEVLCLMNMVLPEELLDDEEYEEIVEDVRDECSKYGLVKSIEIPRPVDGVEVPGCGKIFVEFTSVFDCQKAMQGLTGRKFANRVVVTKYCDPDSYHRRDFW
UniProt Q16881, whole entry, looked up: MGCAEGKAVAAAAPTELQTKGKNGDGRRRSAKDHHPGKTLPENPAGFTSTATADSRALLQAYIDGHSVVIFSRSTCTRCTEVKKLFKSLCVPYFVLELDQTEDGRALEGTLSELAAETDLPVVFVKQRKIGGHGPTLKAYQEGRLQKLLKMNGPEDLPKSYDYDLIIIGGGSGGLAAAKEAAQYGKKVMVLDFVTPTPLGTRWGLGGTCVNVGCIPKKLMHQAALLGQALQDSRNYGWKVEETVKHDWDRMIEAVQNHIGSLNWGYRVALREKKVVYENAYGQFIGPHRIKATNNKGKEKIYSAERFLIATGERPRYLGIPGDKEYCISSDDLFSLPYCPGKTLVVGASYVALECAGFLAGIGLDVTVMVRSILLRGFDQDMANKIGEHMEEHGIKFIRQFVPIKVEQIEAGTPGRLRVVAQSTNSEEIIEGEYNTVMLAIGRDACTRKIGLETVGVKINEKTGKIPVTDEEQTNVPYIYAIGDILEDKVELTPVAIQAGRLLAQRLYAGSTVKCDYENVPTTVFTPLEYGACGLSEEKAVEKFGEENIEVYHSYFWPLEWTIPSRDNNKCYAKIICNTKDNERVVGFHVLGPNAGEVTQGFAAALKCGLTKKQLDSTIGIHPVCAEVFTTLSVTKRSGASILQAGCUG
UniProt Q9BRA2: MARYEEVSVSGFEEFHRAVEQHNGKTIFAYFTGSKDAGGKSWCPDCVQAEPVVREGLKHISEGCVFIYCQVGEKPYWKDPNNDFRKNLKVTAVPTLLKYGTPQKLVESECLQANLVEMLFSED
UniProt Q9BUF5, whole entry, looked up: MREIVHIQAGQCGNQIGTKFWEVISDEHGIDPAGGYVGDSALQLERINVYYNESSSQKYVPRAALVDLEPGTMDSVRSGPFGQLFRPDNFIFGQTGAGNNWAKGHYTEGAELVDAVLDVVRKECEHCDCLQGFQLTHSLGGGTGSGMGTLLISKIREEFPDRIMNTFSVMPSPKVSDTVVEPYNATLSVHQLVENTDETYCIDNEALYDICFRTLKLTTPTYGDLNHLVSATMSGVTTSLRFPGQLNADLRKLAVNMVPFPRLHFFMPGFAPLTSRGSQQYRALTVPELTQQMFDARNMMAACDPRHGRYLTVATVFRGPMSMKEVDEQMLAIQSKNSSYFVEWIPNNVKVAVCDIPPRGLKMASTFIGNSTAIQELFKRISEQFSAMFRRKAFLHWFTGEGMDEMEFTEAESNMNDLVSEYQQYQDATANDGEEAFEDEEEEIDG
UniProt O43396: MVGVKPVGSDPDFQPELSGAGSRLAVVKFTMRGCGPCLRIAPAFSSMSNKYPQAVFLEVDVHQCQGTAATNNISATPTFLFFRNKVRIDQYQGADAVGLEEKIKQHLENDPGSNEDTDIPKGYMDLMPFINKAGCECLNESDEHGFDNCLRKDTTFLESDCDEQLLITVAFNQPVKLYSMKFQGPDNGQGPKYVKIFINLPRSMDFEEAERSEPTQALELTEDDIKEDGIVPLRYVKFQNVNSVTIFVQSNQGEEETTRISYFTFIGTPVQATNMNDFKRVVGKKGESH
UniProt Q9NV66: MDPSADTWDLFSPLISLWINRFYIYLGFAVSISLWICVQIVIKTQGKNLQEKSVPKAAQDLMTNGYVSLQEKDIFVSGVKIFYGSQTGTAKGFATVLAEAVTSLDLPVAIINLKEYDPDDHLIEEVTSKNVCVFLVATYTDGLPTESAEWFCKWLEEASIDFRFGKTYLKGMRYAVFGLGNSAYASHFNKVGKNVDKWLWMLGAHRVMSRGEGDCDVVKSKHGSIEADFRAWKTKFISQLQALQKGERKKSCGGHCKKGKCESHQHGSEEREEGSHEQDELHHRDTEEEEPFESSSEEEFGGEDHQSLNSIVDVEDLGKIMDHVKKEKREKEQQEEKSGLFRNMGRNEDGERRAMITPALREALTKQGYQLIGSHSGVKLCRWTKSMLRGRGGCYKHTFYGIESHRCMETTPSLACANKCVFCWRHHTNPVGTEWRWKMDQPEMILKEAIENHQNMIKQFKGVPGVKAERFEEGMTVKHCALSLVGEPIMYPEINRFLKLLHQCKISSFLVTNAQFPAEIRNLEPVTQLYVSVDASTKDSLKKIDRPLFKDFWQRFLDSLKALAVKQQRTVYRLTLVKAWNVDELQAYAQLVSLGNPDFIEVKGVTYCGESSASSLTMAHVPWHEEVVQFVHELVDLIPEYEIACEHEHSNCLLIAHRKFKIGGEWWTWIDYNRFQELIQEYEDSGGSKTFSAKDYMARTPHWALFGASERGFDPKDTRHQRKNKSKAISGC
UniProt P04350, whole entry, looked up: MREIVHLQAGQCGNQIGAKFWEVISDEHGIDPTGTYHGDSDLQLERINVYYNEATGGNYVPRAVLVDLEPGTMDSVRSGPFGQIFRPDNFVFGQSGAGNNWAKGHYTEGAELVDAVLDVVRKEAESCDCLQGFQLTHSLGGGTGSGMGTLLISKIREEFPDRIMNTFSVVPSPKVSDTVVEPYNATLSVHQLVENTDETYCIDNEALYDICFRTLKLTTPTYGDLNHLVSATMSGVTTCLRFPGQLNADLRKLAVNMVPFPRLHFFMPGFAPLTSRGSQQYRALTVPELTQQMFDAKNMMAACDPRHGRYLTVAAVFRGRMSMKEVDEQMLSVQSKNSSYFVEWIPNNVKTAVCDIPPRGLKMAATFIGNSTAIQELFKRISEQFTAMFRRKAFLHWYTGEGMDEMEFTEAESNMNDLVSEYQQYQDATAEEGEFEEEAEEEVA
UniProt Q99757: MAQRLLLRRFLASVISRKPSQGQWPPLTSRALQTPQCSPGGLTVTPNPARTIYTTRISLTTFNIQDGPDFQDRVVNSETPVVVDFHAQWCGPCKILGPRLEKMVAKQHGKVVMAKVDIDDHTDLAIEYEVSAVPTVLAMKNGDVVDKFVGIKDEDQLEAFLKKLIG
UniProt O95801: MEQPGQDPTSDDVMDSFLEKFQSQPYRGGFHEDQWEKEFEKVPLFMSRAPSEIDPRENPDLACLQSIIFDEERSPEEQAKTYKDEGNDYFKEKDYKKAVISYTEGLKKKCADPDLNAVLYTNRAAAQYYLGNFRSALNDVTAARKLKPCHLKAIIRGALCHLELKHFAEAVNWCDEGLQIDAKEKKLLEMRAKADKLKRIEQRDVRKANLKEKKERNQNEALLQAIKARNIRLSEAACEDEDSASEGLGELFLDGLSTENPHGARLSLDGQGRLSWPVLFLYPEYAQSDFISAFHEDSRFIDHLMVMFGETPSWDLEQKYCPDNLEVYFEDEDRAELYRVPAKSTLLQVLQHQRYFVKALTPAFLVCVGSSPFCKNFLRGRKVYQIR
UniProt Q969T4: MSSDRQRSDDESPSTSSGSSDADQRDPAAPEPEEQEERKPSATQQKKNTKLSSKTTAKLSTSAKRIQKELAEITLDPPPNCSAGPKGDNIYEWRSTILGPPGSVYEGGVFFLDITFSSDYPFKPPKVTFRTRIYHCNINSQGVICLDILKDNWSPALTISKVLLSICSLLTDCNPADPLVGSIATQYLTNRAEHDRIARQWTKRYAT
UniProt Q9H892: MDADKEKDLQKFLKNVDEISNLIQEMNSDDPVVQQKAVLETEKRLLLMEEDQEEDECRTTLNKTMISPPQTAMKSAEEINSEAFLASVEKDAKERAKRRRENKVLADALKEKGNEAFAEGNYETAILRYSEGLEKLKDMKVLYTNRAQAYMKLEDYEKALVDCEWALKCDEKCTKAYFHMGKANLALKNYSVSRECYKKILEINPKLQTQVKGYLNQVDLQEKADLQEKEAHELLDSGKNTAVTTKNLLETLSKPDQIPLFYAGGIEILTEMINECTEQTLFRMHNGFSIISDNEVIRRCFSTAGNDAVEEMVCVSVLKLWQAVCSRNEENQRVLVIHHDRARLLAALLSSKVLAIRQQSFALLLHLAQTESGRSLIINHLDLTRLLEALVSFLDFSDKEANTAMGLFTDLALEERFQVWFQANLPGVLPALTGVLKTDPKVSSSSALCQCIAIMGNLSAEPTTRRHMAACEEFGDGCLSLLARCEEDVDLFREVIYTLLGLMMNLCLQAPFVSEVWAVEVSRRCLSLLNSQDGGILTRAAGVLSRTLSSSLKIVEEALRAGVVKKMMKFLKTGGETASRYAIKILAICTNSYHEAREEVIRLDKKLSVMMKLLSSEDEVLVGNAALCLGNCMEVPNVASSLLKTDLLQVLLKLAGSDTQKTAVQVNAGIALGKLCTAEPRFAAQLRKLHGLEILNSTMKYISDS
UniProt Q6PID6, whole entry, looked up: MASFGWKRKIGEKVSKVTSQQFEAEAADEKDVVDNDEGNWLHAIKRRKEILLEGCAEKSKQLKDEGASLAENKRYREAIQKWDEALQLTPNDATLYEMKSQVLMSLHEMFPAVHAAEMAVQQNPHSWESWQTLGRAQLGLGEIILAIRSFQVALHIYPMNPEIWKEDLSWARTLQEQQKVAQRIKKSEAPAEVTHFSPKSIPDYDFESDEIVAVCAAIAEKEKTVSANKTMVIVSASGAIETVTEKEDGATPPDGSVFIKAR

Legend:
Test in all cases: log2 fold change, soluble protein after heating vs DMSO (PISA); higher = thermal stabilisation; K562 cells, 10 uM, 30 min; active = over 0.2 and 3.5 SD of the protein, either way, in both replicates (recomputed)
[1] = compound: CC1=C(C=C(C=C1)NC(=O)C2=CC(=CC=C2)C(C)(C)C#N)NC3=CC4=C(C=C3)N=CN(C4=O)C
How it was run: (§1)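 Values are thermal stability changes relative to control samples and are taken from duplicates. They are stated as log2 fold changes. Before quantification by TMTpro 16plex LC-MS/MS with equalised channel sums, K562 cells at 2×10^6 cells/mL were treated with 10 μM compound for 30 min, heated in aliquots for 3 min across 48°C-58°C, pooled, extracted in PBS with 0.5% NP-40 at 4°C, and centrifuged at 21,000xg for 90 min to give the soluble supernatant.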

[2] = compound: CC1=C(C=C(C=C1)NC(=O)C2=CC(=CC=C2)N(C)C)NC(=O)C3=CC=C(C=C3)O
How it was run: as §1

[3] = compound: CC1=CC=C(C=C1)SC2=C3C=C(SC3=CN=C2)C(=O)N
How it was run: as §1

[4] = compound: CC1=NC(=CC=C1)C2=C(N=C(N2)C(C)(C)C)C3=CC4=NC=CN=C4C=C3
How it was run: as §1

Nexturastat A = compound: CCCCN(Cc1ccc(C(=O)NO)cc1)C(=O)Nc1ccccc1 [Nexturastat A]
How it was run: as §1

vemurafenib = compound: CCCS(=O)(=O)Nc1ccc(F)c(C(=O)c2c[nH]c3ncc(-c4ccc(Cl)cc4)cc23)c1F [vemurafenib]
How it was run: as §1

[5] = compound: CCCS(=O)(=O)Nc1ccc(F)c(C(=O)c2c[nH]c3ncc(Cl)cc23)c1F
How it was run: as §1

[6] = compound: CCCc1cc(C)[nH]c(=O)c1CNC(=O)c1cc(-c2ccnc(N3CCN(C)CC3)c2)cc2c1cnn2C(C)C
How it was run: as §1

givinostat = compound: CCN(CC)Cc1ccc2cc(COC(=O)Nc3ccc(C(=O)NO)cc3)ccc2c1 [givinostat]
How it was run: as §1

barasertib = compound: CCN(CCCOc1ccc2c(Nc3cc(CC(=O)Nc4cccc(F)c4)[nH]n3)ncnc2c1)CCOP(=O)(O)O [barasertib]
How it was run: as §1

[7] = compound: CC[C@@H]1C(=O)N(C)c2cnc(Nc3ccc(C(=O)NC4CCN(C)CC4)cc3OC)nc2N1C1CCCC1
How it was run: as §1

volasertib = compound: CC[C@@H]1C(=O)N(C)c2cnc(Nc3ccc(C(=O)N[C@H]4CC[C@H](N5CCN(CC6CC6)CC5)CC4)cc3OC)nc2N1C(C)C [volasertib]
How it was run: as §1

[8] = compound: CC[C@H](C)N1C=C(C2=C(C=C(C=C21)C3=CN=C(C=C3)N4CCNCC4)C(=O)NCC5=C(C=C(NC5=O)C)C)C
How it was run: as §1

epoxomicin = compound: CC[C@H](C)[C@@H](C(=O)N[C@@H]([C@@H](C)O)C(=O)N[C@@H](CC(C)C)C(=O)[C@]1(CO1)C)NC(=O)[C@H]([C@@H](C)CC)N(C)C(=O)C [epoxomicin]
How it was run: as §1

[9] = compound: CCn1c(C(=O)N(C2CC2)C2CC2)cc2c3c(ncn3C)c(Nc3cc(C)n(C)n3)nc21
How it was run: as §1

[10] = compound: CCn1cc(-c2ccnc3[nH]c(-c4cccc(CN(C)C)c4)cc23)c(-c2ccc(NC(=O)N(C)C)cc2)n1
How it was run: as §1

[11] = compound: CN(C)CC(=O)Nc1ccc2[nH]c(=O)c3ccccc3c2c1
How it was run: as §1

rosiglitazone = compound: CN(CCOC1=CC=C(C=C1)C[C@H]2C(=O)NC(=O)S2)C3=CC=CC=N3 (racemic) [rosiglitazone]
How it was run: as §1

[12] = compound: CN1C2=C(C3=C1C(=O)N(N=C3)CC4=CC(=CC=C4)N)SC(=C2)S(=O)C
How it was run: as §1

[13] = compound: CN1CCC(CNc2ccc3ncc(-c4cccc(OC(F)(F)F)c4)n3n2)CC1
How it was run: as §1

| Target | log2 fold change [1] | log2 fold change [2] | log2 fold change [3] | log2 fold change [4] | log2 fold change (Nexturastat A) | log2 fold change (vemurafenib) | log2 fold change [5] | log2 fold change [6] | log2 fold change (givinostat) | log2 fold change (barasertib) | log2 fold change [7] | log2 fold change (volasertib) | log2 fold change [8] | log2 fold change (epoxomicin) | log2 fold change [9] | log2 fold change [10] | log2 fold change [11] | log2 fold change (rosiglitazone) | log2 fold change [12] | log2 fold change [13] |
| --- | --- | --- | --- | --- | --- | --- | --- | --- | --- | --- | --- | --- | --- | --- | --- | --- | --- | --- | --- | --- |
| TSR1 (UniProt Q2NL82) | inactive: 0.075 | inactive: -0.049 | inactive: -0.035 | inactive: -0.001 | inactive: 0.288 | inactive: 0.1 | inactive: -0.028 | inactive: 0.18 | inactive: 0.076 | inactive: 0.006 | inactive: 0.145 | inactive: 0.132 | inactive: 0.119 | inactive: -0.013 | inactive: -0.083 | inactive: -0.065 | inactive: 0.076 | inactive: 0.025 | inactive: 0.132 | inactive: 0.117 |
| TUBA8 (UniProt Q9NY65) | inactive: 0.011 | inactive: 0.005 | inactive: -0.087 | inactive: -0.116 | inactive: 0.278 | inactive: -0.083 | inactive: -0.066 | inactive: 0.126 | inactive: 0.12 | inactive: -0.123 | inactive: 0.532 | inactive: 0.145 | inactive: -0.08 | inactive: -0.436 | inactive: -0.146 | inactive: 0.368 | inactive: -0.164 | inactive: -0.152 |  | inactive: 0.389 |
| UBE2J1 (UniProt Q9Y385) | inactive: -0.133 | inactive: -0.016 | inactive: 0.107 | inactive: 0.04 | inactive: -0.077 | inactive: -0.087 | inactive: -0.071 | inactive: -0.262 | inactive: 0.098 | inactive: -0.047 | inactive: -0.073 | inactive: -0.165 | inactive: 0.07 | inactive: 0.248 |  | inactive: 0.014 | inactive: 0.01 |  | inactive: -0.083 | inactive: -0.006 |
| UBA6 | inactive: 0.086 | inactive: -0.044 | inactive: 0.032 | inactive: 0.02 | inactive: -0.027 | inactive: 0.057 | inactive: 0.086 | inactive: 0.036 | inactive: 0.015 | inactive: 0.07 | inactive: -0.139 | inactive: -0.189 | inactive: 0.057 | inactive: 0.029 |  | inactive: -0.031 | inactive: 0.033 |  | inactive: 0 | inactive: 0.001 |
| U2AF2 (UniProt P26368) | inactive: -0.076 | inactive: 0.005 | inactive: -0.066 | inactive: 0.047 | inactive: -0.048 | inactive: 0.031 | inactive: 0.001 | inactive: -0.028 | inactive: 0.002 | inactive: -0.015 | inactive: -0.057 | active: -0.231 | inactive: 0.039 | inactive: -0.024 |  | inactive: 0 | inactive: 0.002 |  | inactive: 0 | active: -0.307 |
| TXNRD1 (UniProt Q16881) | inactive: 0.032 | inactive: 0.006 | inactive: 0.021 | inactive: 0.039 | inactive: -0.051 | inactive: 0.024 | inactive: 0.007 | inactive: -0.035 | inactive: 0.011 | inactive: 0.024 | inactive: 0.004 | inactive: 0.05 | inactive: 0.006 | inactive: 0.054 |  | inactive: -0.049 | inactive: -0.003 |  | inactive: -0.096 | inactive: -0.006 |
| TXNDC17 (UniProt Q9BRA2) | inactive: -0.044 | inactive: -0.05 | inactive: -0.011 | inactive: 0.016 | inactive: -0.017 | inactive: 0.025 | inactive: 0.057 | inactive: 0.032 | inactive: 0.007 | inactive: 0.015 | inactive: -0.077 | inactive: -0.08 | inactive: 0.034 | inactive: 0.016 | inactive: 0.052 | inactive: 0.072 | inactive: 0.007 | inactive: -0.078 | inactive: -0.018 | inactive: -0.132 |
| UBA1 (UniProt P22314) | inactive: 0.039 | inactive: -0.054 | inactive: 0.048 | inactive: 0.006 | inactive: -0.066 | inactive: 0.084 | inactive: 0.089 | inactive: 0.058 | inactive: 0.074 | inactive: 0.138 | inactive: -0.236 | active: -0.543 | inactive: 0.133 | inactive: 0.044 |  | inactive: -0.008 | inactive: 0.115 |  | inactive: 0.023 | inactive: -0.02 |
| TUBB6 (UniProt Q9BUF5) | inactive: -0.065 | inactive: 0 | inactive: 0.021 | inactive: 0.005 | inactive: -0.022 | inactive: -0.005 | inactive: 0.015 | inactive: -0.01 | inactive: -0.016 | inactive: 0.002 | inactive: -0.013 | inactive: 0.032 | inactive: 0.013 | inactive: 0.021 | inactive: -0.019 | inactive: -0.017 | inactive: -0.013 | inactive: -0.017 | inactive: -0.044 | inactive: -0.091 |
| TXNL1 (UniProt O43396) | inactive: 0.02 | inactive: -0.105 | inactive: 0.007 | inactive: 0.098 | inactive: 0.117 | inactive: 0.037 | inactive: 0.079 | inactive: 0.015 | inactive: 0.114 | inactive: 0.045 | inactive: -0.104 | inactive: -0.163 | inactive: 0.044 | active: 0.295 |  | inactive: -0.031 | inactive: 0.027 |  | inactive: -0.018 | inactive: 0.011 |
| TYW1 (UniProt Q9NV66) | inactive: 0.027 | inactive: -0.017 | inactive: 0.023 | inactive: 0.074 | inactive: -0.08 | inactive: 0.025 | inactive: 0.084 | inactive: 0.069 | inactive: -0.025 | inactive: 0.045 | inactive: -0.02 | active: -0.341 | inactive: 0.052 | inactive: 0.03 |  | inactive: -0.002 | inactive: 0.031 |  | inactive: 0.014 | inactive: 0.088 |
| TUBB4A (UniProt P04350) | inactive: 0.035 | inactive: -0.015 | inactive: 0.046 | inactive: 0.175 | inactive: 0.056 | inactive: 0.04 | inactive: -0.059 | inactive: 0.172 | inactive: -0.041 | inactive: -0.03 | inactive: 0.06 | inactive: 0.087 | inactive: -0.076 | inactive: 0.351 | inactive: 0.035 |  | inactive: -0.034 | inactive: -0.071 | inactive: 0.008 |  |
| TXN2 (UniProt Q99757) | inactive: -0.05 | inactive: -0.018 | inactive: -0.009 | inactive: 0.036 | inactive: 0.093 | inactive: 0.006 | inactive: -0.048 | inactive: 0.095 | inactive: -0.046 | inactive: 0.009 | inactive: -0.037 | inactive: 0.051 | inactive: -0.029 | inactive: 0.082 |  | inactive: -0.089 | inactive: -0.096 |  | inactive: 0.03 | inactive: 0.083 |
| TUBB6 (UniProt K7ES63) | inactive: 0.015 | inactive: 0.076 | inactive: -0.046 | inactive: -0.057 | inactive: 0.071 | inactive: -0.208 | inactive: -0.099 | inactive: -0.172 | inactive: -0.079 | inactive: 0.043 | inactive: 0.085 | inactive: 0.13 | inactive: -0.164 | inactive: -0.099 | inactive: 0.107 |  | inactive: 0.139 | inactive: 0.331 | inactive: 0.069 |  |
| TTC4 (UniProt O95801) | inactive: 0.051 | inactive: -0.066 | inactive: 0.032 | inactive: 0.046 | inactive: 0.052 | inactive: 0.059 | inactive: 0.106 | inactive: 0.013 | inactive: -0.015 | inactive: 0.072 | inactive: -0.173 | active: -0.316 | inactive: 0.103 | inactive: 0.054 |  | inactive: -0.039 | inactive: 0.061 |  | inactive: -0.02 | inactive: -0.11 |
| UBE2E3 (UniProt Q969T4) | inactive: 0.028 | inactive: -0.059 | inactive: 0.053 | inactive: 0.08 | inactive: -0.098 | inactive: -0.013 | inactive: 0.08 | inactive: 0.022 | inactive: 0.116 | inactive: 0.013 | inactive: -0.124 | active: -0.377 | inactive: -0.008 | inactive: -0.052 |  | inactive: -0.11 | inactive: 0.022 |  | inactive: -0.005 | inactive: -0.24 |
| TTC12 isoform 2 (UniProt Q9H892) | inactive: -0.095 | inactive: 0.06 |  | inactive: -0.279 | inactive: 0.311 |  |  | inactive: -0.171 | inactive: -0.007 | inactive: -0.065 | inactive: 0.408 |  | inactive: -0.146 | inactive: -0.276 | inactive: 0.028 |  |  | inactive: -0.115 | inactive: 0.258 |  |
| TTC33 (UniProt Q6PID6) | inactive: -0.046 | inactive: -0.025 | inactive: -0.059 | inactive: -0.189 | inactive: 0.026 | inactive: -0.07 | inactive: -0.002 | inactive: -0.471 | inactive: -0.062 | inactive: 0.079 | inactive: 0.038 | inactive: -0.027 |  | inactive: 0.049 |  | active: -0.449 | inactive: -0.075 |  | inactive: -0.048 | inactive: 0.138 |

An excerpt of these results, bar-delimited:
Target | log2 fold change [1] | log2 fold change [2] | log2 fold change [3] | log2 fold change [4] | log2 fold change (Nexturastat A) | log2 fold change (vemurafenib) | log2 fold change [5] | log2 fold change [6] | log2 fold change (givinostat) | log2 fold change (barasertib) | log2 fold change [7] | log2 fold change (volasertib) | log2 fold change [8] | log2 fold change (epoxomicin) | log2 fold change [9] | log2 fold change [10] | log2 fold change [11] | log2 fold change (rosiglitazone) | log2 fold change [12] | log2 fold change [13]
TXNDC17 (UniProt Q9BRA2) | inactive: -0.044 | inactive: -0.05 | inactive: -0.011 | inactive: 0.016 | inactive: -0.017 | inactive: 0.025 | inactive: 0.057 | inactive: 0.032 | inactive: 0.007 | inactive: 0.015 | inactive: -0.077 | inactive: -0.08 | inactive: 0.034 | inactive: 0.016 | inactive: 0.052 | inactive: 0.072 | inactive: 0.007 | inactive: -0.078 | inactive: -0.018 | inactive: -0.132
UBA1 (UniProt P22314) | inactive: 0.039 | inactive: -0.054 | inactive: 0.048 | inactive: 0.006 | inactive: -0.066 | inactive: 0.084 | inactive: 0.089 | inactive: 0.058 | inactive: 0.074 | inactive: 0.138 | inactive: -0.236 | active: -0.543 | inactive: 0.133 | inactive: 0.044 |  | inactive: -0.008 | inactive: 0.115 |  | inactive: 0.023 | inactive: -0.02
TUBB6 (UniProt Q9BUF5) | inactive: -0.065 | inactive: 0 | inactive: 0.021 | inactive: 0.005 | inactive: -0.022 | inactive: -0.005 | inactive: 0.015 | inactive: -0.01 | inactive: -0.016 | inactive: 0.002 | inactive: -0.013 | inactive: 0.032 | inactive: 0.013 | inactive: 0.021 | inactive: -0.019 | inactive: -0.017 | inactive: -0.013 | inactive: -0.017 | inactive: -0.044 | inactive: -0.091
TXNL1 (UniProt O43396) | inactive: 0.02 | inactive: -0.105 | inactive: 0.007 | inactive: 0.098 | inactive: 0.117 | inactive: 0.037 | inactive: 0.079 | inactive: 0.015 | inactive: 0.114 | inactive: 0.045 | inactive: -0.104 | inactive: -0.163 | inactive: 0.044 | active: 0.295 |  | inactive: -0.031 | inactive: 0.027 |  | inactive: -0.018 | inactive: 0.011
